Some entries share one result that the patent states for a list of compounds.
What was measured:
[1] = system: peripheral blood mononuclear cells (PBMCs); test: Lymphoproliferative assay (stimulation index of PBMCs); format: cell-based, human; details: PBMCs from 30 subjects
Procedure: Lymphoproliferative assay. Defibrinated blood from volunteers was separated on a Ficoll gradient. Sera was used for antibody assays (see below) while peripheral blood mononuclear cells (PBMCs) were washed and resuspended in RPMI 1640 (Sigma Chemical Co., St. Louis, Mo., USA) supplemented with 2 mM L-glutamine, penicillin (100 IU/ml), streptomycin sulphate (100 μg/ml) and 10% heat-inactivated autologous serum. PBMCs (10^5 cells/well) were cultured in 96-well round-bottomed plates (Costar, Cambridge, Mo., USA) in a total volume of 200 μl. Three replicates of each culture were incubated with three concentrations (1, 10 and 40 μg/ml) of SA I/II, recombinant fragments, non-recombinant control or synthetic peptides. Incubation was at 37° C. in a humidified atmosphere with 5% CO2 for 6 days. […] Cultures were harvested onto glass fibre filters using a Dynatech (Chantilly, Va., USA) Minimal Cell harvester and [^3H]-thymidine incorporation was measured using the LKB liquid scintillation counter (Bromma, Sweden). Proliferation was expressed as stimulation index which is mean counts per minute (cpm) of antigen-stimulated, divided by cpm of antigen-free cultures. […]
Peripheral blood lymphocytes from human volunteers were prepared as described above. […] Proliferative responses of 17 subjects were determined. […]

[2] = system: S. mutans (Guy's strain); test: Bacterial adherence assay (competitive inhibition of adherence to saliva-coated wells); format: cell-based, Streptococcus mutans; details: 500 μM peptide; saliva-coated microtitre wells
[3] = system: purified salivary receptor; test: BIAcore direct binding to immobilised purified salivary receptor; design: species or system human; details: approximately 5 μM
Procedure: SA I/II and recombinant polypeptides were prepared as described above. Salivary receptor was prepared by absorption of whole saliva with intact cells of S. mutans (Lee et al (1989) Infect. Immun. 57:3306-3313). The cells were washed with KPBS (2.7 mM KCl, 137 mM NaCl in 1.5 mM KH2PO4, 6.5 mM Na2HPO4, pH 7.2)and adsorbed material was eluted with 1 mM EDTA in KPBS. Analysis of the purified material by polyacrylamide gel electrophoresis in the presence of Na dodecyl sulphate indicated the presence of components of Mr>200,000 and approximately 40,000. Peptides were prepared by the simultaneous multiple peptide synthesis procedure (Houghten (1985) Proc. Natl. Acad. Sci. USA 82: 5131-5135) as above. In addition, a series of peptides was synthesised corresponding to residues 1025-1044 in which each residue in turn was substituted by alanine.
Purified SA I/II or salivary receptor was immobilised on the sensor chip surface at a concentration of 100 μg/ml in 10 mM Na formate pH 3.5 using the amine coupling kit (Pharmacia Biosensor).
Purified salivary receptor was immobilised on the sensor chip and binding of SA I/II or purified recombinant polypeptide fragments was determined.

Substance	frequency of response to each peptide (SI≧3.0 c.p.m. >500) [1]	maximal inhibition of adhesion of S. mutans [2]	binding to salivary receptor [3]
LATFNADLTKSVATIYPTVV (Streptococcus mutans) [1085-1104, Residues 1085-1104 of SA I/II]	> 20%	≥ 90%	
SA I/II: S. mutans I/II antigen, a cell surface protein with an Mr of about 185 kDa, purified from S. mutans Guy's strain			500-600 RU
peptide 1025-1044: synthetic 20mer peptide amide, residues 1025-1044 of SA I/II (FQLKTADLPAGRDETTSFVLV; C-terminal amide; Streptococcus mutans)		≥ 90%	
recombinant SA I/II: recombinant SA I/II			500-600 RU
